According to the supplement of paper PMC6078165:

Test system: MDAMB436
Assay: relative JC-1 red fluorescence (viability) vs pre-drug, coculture with fibroblast (fraction); higher = more viable cancer cells
Protocol: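 JC-1 labelled TNBC cells cocultured 1:1 (1,500 cells each) with CellTrace Violet stained primary or stromal fibroblasts in 384-well plates in FluoroBrite medium, treated with one of 42 anticancer drugs at 0.1, 1, 10 or 100 uM. JC-1 red fluorescence (mitochondrial integrity in cancer cells only) was read by plate reader every 8 h for 72 h. Values are normalised to each well's pre-drug value. The stock of one drug was tenfold lower, so its dose labels may be too high.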

O=C(O)C1(C(=O)O)CCC1.[NH2-].[NH2-].[Pt+2] [Carboplatin]
relative JC-1 red fluorescence
Conditions | 8 h | 16 h | 24 h | 32 h | 40 h | 48 h | 56 h | 64 h | 72 h
0.1 µM, coculture fibroblast: C12385 | 0.8065 | 0.697 | 0.6395 | 0.565 | 0.513 | 0.494 | 0.472 | 0.46 | 0.457
0.1 µM, coculture fibroblast: H6013 | 0.842 | 0.734 | 0.701 | 0.686 | 0.66 | 0.669 | 0.636 | 0.615 | 0.575
0.1 µM, coculture fibroblast: H6019 | 0.7466 | 0.634 | 0.619 | 0.54196 | 0.502 | 0.475 | 0.445 | 0.403 | 0.379
0.1 µM, coculture fibroblast: H6076 | 0.827 | 0.733 | 0.721 | 0.68 | 0.667 | 0.651 | 0.647 | 0.632 | 0.625
0.1 µM, coculture fibroblast: H6231 | 0.804 | 0.71 | 0.669 | 0.598 | 0.555 | 0.51 | 0.4875 | 0.459 | 0.426
0.1 µM, coculture fibroblast: HADF | 0.801 | 0.708 | 0.668 | 0.629 | 0.597 | 0.5909 | 0.545 | 0.521 | 0.478
0.1 µM, coculture fibroblast: HCFa | 0.7932 | 0.716 | 0.6841 | 0.653 | 0.622 | 0.626 | 0.562 | 0.544 | 0.484
0.1 µM, coculture fibroblast: HCPF | 0.843 | 0.769 | 0.715 | 0.654 | 0.598 | 0.554 | 0.516 | 0.488 | 0.462
0.1 µM, coculture fibroblast: HHSteC | 0.812 | 0.736 | 0.706 | 0.668 | 0.65 | 0.656 | 0.592 | 0.566 | 0.506
0.1 µM, coculture fibroblast: HMF | 0.8 | 0.697 | 0.632 | 0.589 | 0.558 | 0.527 | 0.521 | 0.501 | 0.486
0.1 µM, coculture fibroblast: HPFa | 0.929 | 0.821 | 0.7716 | 0.706 | 0.755 | 0.808 | 0.792 | 0.767 | 0.69
0.1 µM, coculture fibroblast: HUF | 0.823 | 0.693 | 0.658 | 0.582 | 0.522 | 0.487 | 0.46 | 0.442 | 0.428
0.1 µM, coculture fibroblast: Hs5 | 0.7756 | 0.707 | 0.684 | 0.625 | 0.611 | 0.566 | 0.568 | 0.53 | 0.516
0.1 µM, coculture fibroblast: Hs27A | 0.77 | 0.7 | 0.68 | 0.645 | 0.616 | 0.66 | 0.571 | 0.555 | 0.49
0.1 µM, coculture fibroblast: Hs343T | 0.827 | 0.719 | 0.638 | 0.598 | 0.552 | 0.513 | 0.48 | 0.454 | 0.444
0.1 µM, coculture fibroblast: WS1 | 0.794 | 0.701 | 0.6674 | 0.588 | 0.544 | 0.524 | 0.499 | 0.471 | 0.464
1 µM, coculture fibroblast: C12385 | 0.7282 | 0.683 | 0.66 | 0.5822 | 0.54 | 0.523 | 0.506 | 0.4993 | 0.4964
1 µM, coculture fibroblast: H6013 | 0.7762 | 0.752 | 0.728 | 0.706 | 0.692 | 0.713 | 0.677 | 0.661 | 0.613
1 µM, coculture fibroblast: H6019 | 0.728 | 0.673 | 0.661 | 0.591 | 0.5633 | 0.5578 | 0.53155 | 0.5097 | 0.481
1 µM, coculture fibroblast: H6076 | 0.716 | 0.646 | 0.633 | 0.591 | 0.579 | 0.556 | 0.566 | 0.569 | 0.563
1 µM, coculture fibroblast: H6231 | 0.716 | 0.644 | 0.692 | 0.617 | 0.601 | 0.584 | 0.573 | 0.566 | 0.533
1 µM, coculture fibroblast: HADF | 0.7966 | 0.739 | 0.706 | 0.67 | 0.657 | 0.684 | 0.625 | 0.621 | 0.581
1 µM, coculture fibroblast: HCFa | 0.797 | 0.744 | 0.711 | 0.667 | 0.627 | 0.632 | 0.56 | 0.543 | 0.484
1 µM, coculture fibroblast: HCPF | 0.768 | 0.696 | 0.662 | 0.601 | 0.5663 | 0.5359 | 0.516 | 0.494 | 0.471
1 µM, coculture fibroblast: HHSteC | 0.789 | 0.766 | 0.726 | 0.688 | 0.68 | 0.688 | 0.628 | 0.607 | 0.551
1 µM, coculture fibroblast: HMF | 0.75 | 0.665 | 0.635 | 0.578 | 0.545 | 0.508 | 0.497 | 0.482 | 0.472
1 µM, coculture fibroblast: HPFa | 0.898 | 0.835 | 0.81 | 0.759 | 0.744 | 0.744 | 0.656 | 0.613 | 0.522
1 µM, coculture fibroblast: HUF | 0.801 | 0.711 | 0.681 | 0.603 | 0.557 | 0.527 | 0.505 | 0.493 | 0.489
1 µM, coculture fibroblast: Hs5 | 0.781 | 0.7412 | 0.754 | 0.69 | 0.683 | 0.6387 | 0.645 | 0.625 | 0.6111
1 µM, coculture fibroblast: Hs27A | 0.842 | 0.753 | 0.748 | 0.711 | 0.685 | 0.746 | 0.642 | 0.628 | 0.552
1 µM, coculture fibroblast: Hs343T | 0.735 | 0.64 | 0.602 | 0.553 | 0.526 | 0.493 | 0.483 | 0.4658 | 0.4589
1 µM, coculture fibroblast: WS1 | 0.7244 | 0.694 | 0.667 | 0.594 | 0.555 | 0.541 | 0.524 | 0.495 | 0.49
10 µM, coculture fibroblast: C12385 | 0.819 | 0.706 | 0.645 | 0.558 | 0.506 | 0.48 | 0.455 | 0.438 | 0.429
10 µM, coculture fibroblast: H6013 | 0.852 | 0.753 | 0.7339 | 0.7222 | 0.704 | 0.712 | 0.68 | 0.661 | 0.62
10 µM, coculture fibroblast: H6019 | 0.759 | 0.648 | 0.627 | 0.542 | 0.511 | 0.493 | 0.47 | 0.446 | 0.424
10 µM, coculture fibroblast: H6076 | 0.81117 | 0.657 | 0.606 | 0.556 | 0.521 | 0.491 | 0.487 | 0.4848 | 0.4754
10 µM, coculture fibroblast: H6231 | 0.746 | 0.635 | 0.564 | 0.504 | 0.461 | 0.424 | 0.411 | 0.383 | 0.363
10 µM, coculture fibroblast: HADF | 0.805 | 0.704 | 0.669 | 0.629 | 0.598 | 0.603 | 0.555 | 0.537 | 0.498
10 µM, coculture fibroblast: HCFa | 0.762 | 0.669 | 0.636 | 0.597 | 0.573 | 0.581 | 0.519 | 0.51 | 0.461
10 µM, coculture fibroblast: HCPF | 0.806 | 0.719 | 0.618 | 0.563 | 0.526 | 0.477 | 0.446 | 0.419 | 0.3995
10 µM, coculture fibroblast: HHSteC | 0.81 | 0.7442 | 0.705 | 0.6617 | 0.645 | 0.654 | 0.594 | 0.5695 | 0.5158
10 µM, coculture fibroblast: HMF | 0.782 | 0.64 | 0.537 | 0.5 | 0.46 | 0.427 | 0.419 | 0.402 | 0.398
10 µM, coculture fibroblast: HPFa | 0.8485 | 0.7911 | 0.7347 | 0.69105 | 0.6601 | 0.6562 | 0.573 | 0.54 | 0.455
10 µM, coculture fibroblast: HUF | 0.8339 | 0.7175 | 0.677 | 0.598 | 0.5417 | 0.517 | 0.49 | 0.474 | 0.466
10 µM, coculture fibroblast: Hs5 | 0.805 | 0.691 | 0.6 | 0.524 | 0.484 | 0.446 | 0.4356 | 0.404 | 0.388
10 µM, coculture fibroblast: Hs27A | 0.7848 | 0.71324 | 0.688 | 0.664 | 0.627 | 0.674 | 0.609 | 0.596 | 0.545
10 µM, coculture fibroblast: Hs343T | 0.75 | 0.589 | 0.497 | 0.443 | 0.404 | 0.374 | 0.358 | 0.346 | 0.35
10 µM, coculture fibroblast: WS1 | 0.804 | 0.705 | 0.661 | 0.584 | 0.54 | 0.518 | 0.489 | 0.459 | 0.44
100 µM, coculture fibroblast: C12385 | 0.777 | 0.73 | 0.717 | 0.645 | 0.613 | 0.598 | 0.591 | 0.584 | 0.591
100 µM, coculture fibroblast: H6013 | 0.829 | 0.809 | 0.813 | 0.825 | 0.845 | 0.799 | 0.827 | 0.731 | 0.753
100 µM, coculture fibroblast: H6019 | 0.769 | 0.724 | 0.716 | 0.646 | 0.623 | 0.625 | 0.602 | 0.599 | 0.591
100 µM, coculture fibroblast: H6076 | 0.6366 | 0.572 | 0.578 | 0.555 | 0.553 | 0.555 | 0.598 | 0.621 | 0.646
100 µM, coculture fibroblast: H6231 | 0.6325 | 0.627 | 0.671 | 0.619 | 0.606 | 0.591 | 0.606 | 0.613 | 0.607
100 µM, coculture fibroblast: HADF | 0.7991 | 0.768 | 0.759 | 0.734 | 0.747 | 0.78 | 0.734 | 0.744 | 0.714
100 µM, coculture fibroblast: HCFa | 0.794 | 0.768 | 0.75 | 0.722 | 0.724 | 0.762 | 0.716 | 0.738 | 0.706
100 µM, coculture fibroblast: HCPF | 0.658 | 0.613 | 0.611 | 0.554 | 0.525 | 0.504 | 0.499 | 0.494 | 0.49
100 µM, coculture fibroblast: HHSteC | 0.847 | 0.848 | 0.845 | 0.818 | 0.835 | 0.861 | 0.821 | 0.833 | 0.801
100 µM, coculture fibroblast: HMF | 0.651 | 0.583 | 0.564 | 0.517 | 0.4949 | 0.473 | 0.484 | 0.485 | 0.494
100 µM, coculture fibroblast: HPFa | 0.868 | 0.862 | 0.845 | 0.808 | 0.812 | 0.84 | 0.789 | 0.776 | 0.74
100 µM, coculture fibroblast: HUF | 0.811 | 0.744 | 0.718 | 0.649 | 0.607 | 0.589 | 0.577 | 0.57 | 0.574
100 µM, coculture fibroblast: Hs5 | 0.6643 | 0.6188 | 0.625 | 0.584 | 0.58 | 0.555 | 0.595 | 0.6 | 0.6102
100 µM, coculture fibroblast: Hs27A | 0.803 | 0.798 | 0.787 | 0.765 | 0.746 | 0.839 | 0.769 | 0.788 | 0.747
100 µM, coculture fibroblast: Hs343T | 0.709 | 0.66 | 0.629 | 0.576 | 0.553 | 0.521 | 0.529 | 0.528 | 0.533
100 µM, coculture fibroblast: WS1 | 0.775 | 0.734 | 0.715 | 0.647 | 0.613 | 0.606 | 0.594 | 0.58 | 0.584

Values are relative to the signal before dosing, not to a vehicle control; the signal also falls without drug.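 Fibroblast labels name human fibroblasts: mostly primary ones from tissues such as uterus (C12385, HUF), lung (H6013), bone (Hs27A), adrenal (HADF) and skin (WS1), plus mammary HMF and breast cancer-associated Hs343T. The cancer cells are basal-like or mesenchymal-like triple-negative breast cancer lines. The paper calls a changed response a hit when it shifts by more than 3x the replicate standard deviation. The tissue of the other fibroblasts is not given here.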
